{"source": "the supplement of paper PMC8728848", "binders": {"B1": {"name": "DC-Sign-R (Homo sapiens), Q9H2X3 (protein)", "chain": "MSDSKEPRVQQLGLLEEDPTTSGIRLFPRDFQFQQIHGHKSSTGCLGHGALVLQLLSFMLLAGVLVAILVQVSKVPSSLSQEQSEQDAIYQNLTQLKAAVGELSEKSKLQEIYQELTQLKAAVGELPEKSKLQEIYQELTRLKAAVGELPEKSKLQEIYQELTRLKAAVGELPEKSKLQEIYQELTRLKAAVGELPEKSKLQEIYQELTELKAAVGELPEKSKLQEIYQELTQLKAAVGELPDQSKQQQIYQELTDLKTAFERLCRHCPKDWTFFQGNCYFMSNSQRNWHDSVTACQEVRAQLVVIKTAEEQNFLQLQTSRSNRFSWMGLSDLNQEGTWQWVDGSPLSPSFQRYWNSGEPNNSGNEDCAEFSGSGWNDNRCDVDNYWICKKPAACFRDE"}}, "test_in_all_cases": "glycan array binding signal (z-score within array); higher = stronger binding", "conditions_in_all_cases": "glycan notation: IUPAC condensed, linker removed", "key": {"[1]": {"target": "Fuc(a1-2)Gal(b1-4)GlcNAc(b1-3)Gal(b1-4)GlcNAc(b1-2)Man(a1-3)[Fuc(a1-2)Gal(b1-4)GlcNAc(b1-3)Gal(b1-4)GlcNAc(b1-2)Man(a1-6)]Man(b1-4)GlcNAc(b1-4)GlcNAc", "procedure,_shortened": "(§1)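 Arrays were curated from the Consortium for Functional Glycomics database, 3228 in total, and kept only where the protein sequence was available. Binding is expressed as a within-array Z-score. This score was averaged across arrays of the same protein sequence at different concentrations or buffers and across linkers, and negative values can be read as non-binding.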"}, "[2]": {"target": "Fuc(a1-2)Gal(b1-4)GlcNAc(b1-3)Gal(b1-4)GlcNAc(b1-3)Gal(b1-4)GlcNAc", "procedure,_shortened": "as §1"}, "[3]": {"target": "Fuc(a1-2)Gal(b1-4)GlcNAc(b1-3)GalNAc", "procedure,_shortened": "as §1"}, "[4]": {"target": "Fuc(a1-2)Gal(b1-4)GlcNAc(b1-3)[Fuc(a1-2)Gal(b1-4)GlcNAc(b1-6)]GalNAc", "procedure,_shortened": "as §1"}, "[5]": {"target": "Fuc(a1-2)Gal(b1-4)GlcNAc(b1-3)[Fuc(a1-3)[Gal(b1-4)]GlcNAc(b1-6)]Gal(b1-4)Glc", "procedure,_shortened": "as §1"}, "[6]": {"target": "Fuc(a1-2)Gal(b1-4)GlcNAc(b1-6)GalNAc", "procedure,_shortened": "as §1"}, "[7]": {"target": "Fuc(a1-2)Gal(b1-4)GlcNAc6S", "procedure,_shortened": "as §1"}, "[8]": {"target": "Fuc(a1-2)Gal(b1-4)[Fuc(a1-3)]GlcNAc", "procedure,_shortened": "as §1"}, "[9]": {"target": "Fuc(a1-2)Gal(b1-4)[Fuc(a1-3)]GlcNAc(b1-2)Man(a1-3)[Fuc(a1-2)Gal(b1-4)[Fuc(a1-3)]GlcNAc(b1-2)Man(a1-6)]Man(b1-4)GlcNAc(b1-4)[Fuc(a1-6)]GlcNAc", "procedure,_shortened": "as §1"}, "[10]": {"target": "Fuc(a1-2)Gal(b1-4)[Fuc(a1-3)]GlcNAc(b1-2)[Fuc(a1-2)Gal(b1-4)[Fuc(a1-3)]GlcNAc(b1-4)]Man(a1-3)[Fuc(a1-2)Gal(b1-4)[Fuc(a1-3)]GlcNAc(b1-2)Man(a1-6)]Man(b1-4)GlcNAc(b1-4)GlcNAc", "procedure,_shortened": "as §1"}, "[11]": {"target": "Fuc(a1-2)Gal(b1-4)[Fuc(a1-3)]GlcNAc(b1-3)Gal(b1-4)[Fuc(a1-3)]GlcNAc", "procedure,_shortened": "as §1"}, "[12]": {"target": "Fuc(a1-2)Gal(b1-4)[Fuc(a1-3)]GlcNAc(b1-3)Gal(b1-4)[Fuc(a1-3)]GlcNAc(b1-3)Gal(b1-4)[Fuc(a1-3)]GlcNAc", "procedure,_shortened": "as §1"}, "[13]": {"target": "Fuc(a1-2)Gal(b1-4)[Fuc(a1-3)]GlcNAc(b1-3)GalNAc", "procedure,_shortened": "as §1"}, "[14]": {"target": "Fuc(a1-2)Gal(b1-4)[Fuc(a1-3)]GlcNAc(b1-3)[Neu5Ac(a2-6)Gal(b1-4)GlcNAc(b1-6)]Gal(b1-4)Glc", "procedure,_shortened": "as §1"}, "[15]": {"target": "Fuc(a1-2)Gal3S(b1-4)GlcNAc", "procedure,_shortened": "as §1"}, "[16]": {"target": "Fuc(a1-2)Gal6S(b1-3)GlcNAc", "procedure,_shortened": "as §1"}, "[17]": {"target": "Fuc(a1-2)Gal6S(b1-3)GlcNAc6S", "procedure,_shortened": "as §1"}, "[18]": {"target": "Fuc(a1-2)Gal6S(b1-4)Glc", "procedure,_shortened": "as §1"}, "[19]": {"target": "Fuc(a1-2)Gal6S(b1-4)Glc6S", "procedure,_shortened": "as §1"}, "[20]": {"target": "Fuc(a1-2)[Gal(a1-3)]Gal", "procedure,_shortened": "as §1"}, "[21]": {"target": "Fuc(a1-2)[Gal(a1-3)]Gal(b1-3)GalNAc", "procedure,_shortened": "as §1"}, "[22]": {"target": "Fuc(a1-2)[Gal(a1-3)]Gal(b1-3)GalNAc(b1-3)Gal(a1-4)Gal(b1-4)Glc", "procedure,_shortened": "as §1"}, "[23]": {"target": "Fuc(a1-2)[Gal(a1-3)]Gal(b1-3)GlcNAc", "procedure,_shortened": "as §1"}, "[24]": {"target": "Fuc(a1-2)[Gal(a1-3)]Gal(b1-3)GlcNAc(b1-2)Man(a1-3)[Fuc(a1-2)[Gal(a1-3)]Gal(b1-3)GlcNAc(b1-2)Man(a1-6)]Man(b1-4)GlcNAc(b1-4)GlcNAc", "procedure,_shortened": "as §1"}, "[25]": {"target": "Fuc(a1-2)[Gal(a1-3)]Gal(b1-3)GlcNAc(b1-2)Man(a1-3)[Fuc(a1-2)[Gal(a1-3)]Gal(b1-3)GlcNAc(b1-2)Man(a1-6)]Man(b1-4)GlcNAc(b1-4)[Fuc(a1-6)]GlcNAc", "procedure,_shortened": "as §1"}, "[26]": {"target": "Fuc(a1-2)[Gal(a1-3)]Gal(b1-3)GlcNAc(b1-3)GalNAc", "procedure,_shortened": "as §1"}, "[27]": {"target": "Fuc(a1-2)[Gal(a1-3)]Gal(b1-3)GlcNAc(b1-6)GalNAc", "procedure,_shortened": "as §1"}, "[28]": {"target": "Fuc(a1-2)[Gal(a1-3)]Gal(b1-4)Glc", "procedure,_shortened": "as §1"}, "[29]": {"target": "Fuc(a1-2)[Gal(a1-3)]Gal(b1-4)GlcNAc", "procedure,_shortened": "as §1"}, "[30]": {"target": "Fuc(a1-2)[Gal(a1-3)]Gal(b1-4)GlcNAc(b1-2)Man", "procedure,_shortened": "as §1"}}, "note": "The list shows a part of the results."}
{"binder": "B1", "values": [{"measurement": "glycan array binding signal (z-score)", "setting": "[1]", "result": 1.92}, {"measurement": "glycan array binding signal (z-score)", "setting": "[2]", "result": -0.17}, {"measurement": "glycan array binding signal (z-score)", "setting": "[3]", "result": -0.011}, {"measurement": "glycan array binding signal (z-score)", "setting": "[4]", "result": -0.056}, {"measurement": "glycan array binding signal (z-score)", "setting": "[5]", "result": -0.66}, {"measurement": "glycan array binding signal (z-score)", "setting": "[6]", "result": -0.508}, {"measurement": "glycan array binding signal (z-score)", "setting": "[7]", "result": 0.041}, {"measurement": "glycan array binding signal (z-score)", "setting": "[8]", "result": -0.489}, {"measurement": "glycan array binding signal (z-score)", "setting": "[9]", "result": -0.302}, {"measurement": "glycan array binding signal (z-score)", "setting": "[10]", "result": -0.733}, {"measurement": "glycan array binding signal (z-score)", "setting": "[11]", "result": -0.565}, {"measurement": "glycan array binding signal (z-score)", "setting": "[12]", "result": -0.308}, {"measurement": "glycan array binding signal (z-score)", "setting": "[13]", "result": 1.7}, {"measurement": "glycan array binding signal (z-score)", "setting": "[14]", "result": -0.08}, {"measurement": "glycan array binding signal (z-score)", "setting": "[15]", "result": 0.306}, {"measurement": "glycan array binding signal (z-score)", "setting": "[16]", "result": 0.1}, {"measurement": "glycan array binding signal (z-score)", "setting": "[17]", "result": -0.452}, {"measurement": "glycan array binding signal (z-score)", "setting": "[18]", "result": -0.528}, {"measurement": "glycan array binding signal (z-score)", "setting": "[19]", "result": 0.08}, {"measurement": "glycan array binding signal (z-score)", "setting": "[20]", "result": -0.42}, {"measurement": "glycan array binding signal (z-score)", "setting": "[21]", "result": -0.028}, {"measurement": "glycan array binding signal (z-score)", "setting": "[22]", "result": 0.342}, {"measurement": "glycan array binding signal (z-score)", "setting": "[23]", "result": -0.104}, {"measurement": "glycan array binding signal (z-score)", "setting": "[24]", "result": -0.88}, {"measurement": "glycan array binding signal (z-score)", "setting": "[25]", "result": -0.789}, {"measurement": "glycan array binding signal (z-score)", "setting": "[26]", "result": -0.033}, {"measurement": "glycan array binding signal (z-score)", "setting": "[27]", "result": -0.515}, {"measurement": "glycan array binding signal (z-score)", "setting": "[28]", "result": -0.689}, {"measurement": "glycan array binding signal (z-score)", "setting": "[29]", "result": 0.443}, {"measurement": "glycan array binding signal (z-score)", "setting": "[30]", "result": -0.331}]}
